Data published in PubChem BioAssay AID2685 (National Center for Advancing Translational Sciences (NCATS), 2010).
The other results are listed elsewhere or left out. These are further read-outs of the screen, such as a control signal, another cell line or another target. No call is given for them. Compounds called inactive in the main read-out are mostly missing here. Words in brackets tell the shape of the fitted curve; partial curves, single points and poor fits give uncertain potencies.

Test: qHTS Assay for Lipid Storage Modulators in Drosophila S3 Cells;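 on cell number change: cells counted by Cell Tracker Red CMTPX staining in the red channel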
Conditions: BODIPY lipid droplet fluorescence, 18-24 h; for cell number change: measured here: cell count max response, cells fed with added oleic acid
In short: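 Drosophila S3 cells got compounds at several concentrations plus oleic acid (400 uM solution). Laser-scanning cytometry with 488 nm excitation read lipid droplets at 500-530 nm and cells at 575-640 nm. Percent activity was relative to 20 uM Triacsin C.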

[1] = measured here: lipid fluorescence (Fed channel) AC50, cells fed with added oleic acid
[2] = measured here: cell number channel AC50, cells fed with added oleic acid

Structure (SMILES)	cell number change [%]	AC50 [1]	AC50 [2]
C=CCn1c(CNc2ccc(C)cc2)nnc1SCC(=O)N/N=C/c1ccc(O)cc1O	-17.6	29.1 µM [rising, single point]	–
CNC(=O)NC(=O)CSc1nc2ccccc2n1CCOC	10.5	18.4 µM [rising, single point]	–
CC(C)CCCC(C)NC(=O)c1cc(S(=O)(=O)N2CCCCC2)ccc1N1CCOCC1 (stereo unspecified)	-9.59	2.06 µM [rising, single point]	–
Cc1ccccc1C(=O)Oc1ccc(-c2csnn2)cc1	2.68	0.291 µM [rising, full curve, poor fit]	–
CC1Cc2nc(SCC(=O)Nc3ccc(F)cc3F)n(C)c(=O)c2S1 (stereo unspecified)	1.95	–	–
CC1CCCN(Cc2c(O)ccc3c(=O)c(-c4ccc(Cl)cc4)coc23)C1 (stereo unspecified)	23.6	–	–
Cc1ccc(S(=O)(=O)N2CCC(C(=O)OC(C)C(=O)NCc3ccc4c(c3)OCO4)CC2)cc1 (stereo unspecified)	3.26	0.651 µM [falling, single point]	–
CCc1ccc(OCC(=O)Nc2nnc(-c3ccco3)s2)cc1	13.1	29.1 µM [rising, single point]	–
COc1cc2[nH]c(=S)nc(NCc3ccccc3)c2cc1OC	-1.39	–	0.00461 µM [falling, full curve, poor fit]
CC(=O)N1CCN(S(=O)(=O)c2ccc(S(=O)(=O)NC3CC3)cc2)CC1	72.1	20.6 µM [rising, single point]	18.4 µM [rising, single point]
NS(=O)(=O)c1ccc(NC(=O)Cc2cccs2)cc1	-10.2	29.1 µM [rising, single point]	–
COCCNC(=O)CSc1ccccc1C(=O)O	32	29.1 µM [rising, single point]	14.6 µM [rising, single point]
COc1cnc(-c2ccccc2)nc1Oc1cccc(C)c1	-19.6	6.51 µM [rising, single point]	–
CCn1c(SCC(=O)NC2CC2)nnc1-c1cccc(OC)c1	9.39	–	–
CC(C)Oc1ccc(NC(=O)c2ccncc2)cc1	–	–	0.103 µM [falling, partial curve, poor fit]
Cc1ccc(Cl)c(OCC(=O)Nc2cc(S(=O)(=O)N3CCOCC3)ccc2N2CCCC2)c1	7.52	35.5 µM [rising, single point]	–
O=C(Cc1cccs1)NNC(=O)c1ccc(F)cc1	4.77	–	0.326 µM [falling, partial curve, poor fit]
COc1ccc(C(=O)Nc2cc(-c3nn4c(C)nnc4s3)ccc2C)cc1	–	0.00461 µM [rising, full curve, poor fit]	–
CC1CCCN(C(=O)C2CCN(C(=O)Nc3ccccc3)CC2)C1 (stereo unspecified)	-11.5	1.3 µM [falling, full curve]	–
Cc1nc2ccccc2cc1C(=O)NCc1ccc(F)cc1	-131	–	29.1 µM [falling, partial curve, poor fit]
CN(C)S(=O)(=O)c1ccc(N2CCCC2)c(C(=O)NCc2ccc(Cl)cc2)c1	73.1	18.4 µM [rising, partial curve]	18.4 µM [rising, partial curve]
COC(=O)NC(NC(=S)Nc1ccc([N+](=O)[O-])cc1)C(Cl)(Cl)Cl (stereo unspecified)	-29.9	32.6 µM [falling, single point]	–

Exported comma-delimited: part of the list above
Structure (SMILES),cell number change [%],AC50 [1],AC50 [2]
C=CCn1c(CNc2ccc(C)cc2)nnc1SCC(=O)N/N=C/c1ccc(O)cc1O,-17.6,"29.1 µM [rising, single point]",–
CNC(=O)NC(=O)CSc1nc2ccccc2n1CCOC,10.5,"18.4 µM [rising, single point]",–
CC(C)CCCC(C)NC(=O)c1cc(S(=O)(=O)N2CCCCC2)ccc1N1CCOCC1 (stereo unspecified),-9.59,"2.06 µM [rising, single point]",–
Cc1ccccc1C(=O)Oc1ccc(-c2csnn2)cc1,2.68,"0.291 µM [rising, full curve, poor fit]",–
CC1Cc2nc(SCC(=O)Nc3ccc(F)cc3F)n(C)c(=O)c2S1 (stereo unspecified),1.95,–,–
CC1CCCN(Cc2c(O)ccc3c(=O)c(-c4ccc(Cl)cc4)coc23)C1 (stereo unspecified),23.6,–,–
Cc1ccc(S(=O)(=O)N2CCC(C(=O)OC(C)C(=O)NCc3ccc4c(c3)OCO4)CC2)cc1 (stereo unspecified),3.26,"0.651 µM [falling, single point]",–
CCc1ccc(OCC(=O)Nc2nnc(-c3ccco3)s2)cc1,13.1,"29.1 µM [rising, single point]",–
COc1cc2[nH]c(=S)nc(NCc3ccccc3)c2cc1OC,-1.39,–,"0.00461 µM [falling, full curve, poor fit]"
CC(=O)N1CCN(S(=O)(=O)c2ccc(S(=O)(=O)NC3CC3)cc2)CC1,72.1,"20.6 µM [rising, single point]","18.4 µM [rising, single point]"
NS(=O)(=O)c1ccc(NC(=O)Cc2cccs2)cc1,-10.2,"29.1 µM [rising, single point]",–
COCCNC(=O)CSc1ccccc1C(=O)O,32,"29.1 µM [rising, single point]","14.6 µM [rising, single point]"
COc1cnc(-c2ccccc2)nc1Oc1cccc(C)c1,-19.6,"6.51 µM [rising, single point]",–
CCn1c(SCC(=O)NC2CC2)nnc1-c1cccc(OC)c1,9.39,–,–
CC(C)Oc1ccc(NC(=O)c2ccncc2)cc1,–,–,"0.103 µM [falling, partial curve, poor fit]"
Cc1ccc(Cl)c(OCC(=O)Nc2cc(S(=O)(=O)N3CCOCC3)ccc2N2CCCC2)c1,7.52,"35.5 µM [rising, single point]",–
O=C(Cc1cccs1)NNC(=O)c1ccc(F)cc1,4.77,–,"0.326 µM [falling, partial curve, poor fit]"

The list continues:

Structure (SMILES)	cell number change [%]	AC50 [1]	AC50 [2]
CCOc1ccccc1C1C(C(N)=O)=C(C)Nc2nc(-c3ccccc3Cl)nn21 (stereo unspecified)	–	6.51 µM [rising, single point]	–
CCc1ccc(-c2cc3c(=O)n(CC(=O)NCCCN4CCC(Cc5ccccc5)CC4)nc(C)n3n2)cc1	-13.9	8.2 µM [rising, full curve, poor fit]	–
COc1ccccc1C(=O)Nc1cccnc1	1.62	0.651 µM [falling, single point]	0.517 µM [falling, single point]
COc1cc(Br)cc(/C=N/N(CCO)C2=NS(=O)(=O)c3ccccc32)c1OC	-20.9	–	–
O=S(=O)(NCCc1ccccc1)c1cccc(S(=O)(=O)N2CCOCC2)c1	1.19	–	–
Cc1ccc(C)c(C(=O)COC(=O)c2cc(Cl)nc3ccccc23)c1	9.05	3.66 µM [rising, partial curve, poor fit]	0.146 µM [falling, full curve, poor fit]
COc1cc(O)c(NC(C)=O)c2nonc12	35.9	4.61 µM [rising, full curve]	32.6 µM [rising, single point]
CCCN1C2CCCC1CC(NC(=O)c1cccc(OC)c1)C2 (stereo unspecified)	-2.85	–	–
O=c1c(-c2ccc(Br)cc2)[n+]([O-])c2ccccc2n1OCc1ccccc1	50.1	29.1 µM [rising, single point]	0.92 µM [rising, partial curve]
CN(CC(=O)Nc1ccc(Cl)c(C(F)(F)F)c1)C(=O)c1cn2ccccc2n1	43.8	–	20.6 µM [rising, single point]
COc1cc(/C=N/Nc2nc3ccccc3[nH]2)cc(Br)c1OCC(=O)N(C)C	-1.58	29.1 µM [falling, single point]	–
COc1cccc(CN(C(=O)COc2ccccc2[N+](=O)[O-])C2CCS(=O)(=O)C2)c1 (stereo unspecified)	-25.7	16.4 µM [falling, partial curve, poor fit]	–
COc1ccc(C(C(=O)NCC2CCCO2)N(C(=O)Cn2nnc3ccccc32)c2ccc(NC(C)=O)cc2)cc1OC (stereo unspecified)	4.84	–	–
COc1ccc(C2CC(c3cccs3)=NN2C(=O)CCl)cc1OC (stereo unspecified)	-36.5	–	18.4 µM [falling, single point]
O=C(O)Cn1c(SCc2ccccc2)nc2ccccc21	-19.5	18.4 µM [falling, single point]	–
Cc1cccc(NC(=O)c2ccccc2OCC(=O)N2CCOCC2)c1C	-20	–	–
COc1ccccc1C(=O)NCCC(=O)N(C)Cc1cccnc1	3.05	1.03 µM [rising, full curve, poor fit]	–
CCOC(=O)N1CCN(CC(=O)Nc2cccc(Br)c2)CC1	-4.29	29.1 µM [rising, single point]	–
CC(=O)c1c(Nc2ccccc2)sc(C(=O)c2ccccc2)c1C	33.5	–	11.6 µM [rising, partial curve]
CSc1ccccc1NC(=O)CSCc1ccc(C)cc1	41.7	–	18.4 µM [rising, single point]
Cc1cccc(NC(=S)NCCCN2CCOCC2)c1	-8.88	6.51 µM [rising, single point]	–
Cc1ccc2cc(CN(Cc3cccs3)Cc3nnnn3C(C)(C)C)c3nnnn3c2c1	32.9	0.651 µM [rising, partial curve]	20.6 µM [rising, partial curve, poor fit]

Structure (SMILES)	cell number change [%]	AC50 [1]	AC50 [2]
Cc1ccc2[nH]c(C(=O)N/N=C/c3ccccc3O)c(C)c2c1	10.8	29.1 µM [falling, single point]	–
Cc1csc(SCCN2C(=O)c3ccccc3C2=O)n1	41.7	16.4 µM [rising, partial curve]	8.2 µM [rising, partial curve]
Clc1ccc(Cl)c(-c2nc(-c3ccncc3)no2)c1	5.57	29.1 µM [rising, single point]	–
CCO/C(C)=C1\C(=O)Nc2ccccc21	-16.8	9.2 µM [falling, partial curve]	–
CCOc1ccc2c(c1)c(N=Nc1cccc(C(=O)O)c1)c(O)n2C	7.32	–	–
C=CCNc1nc(C(=O)OCC(=O)Nc2cc(S(C)(=O)=O)ccc2Cl)cs1	15.5	–	–
O=C(Nc1n[nH]c(=S)s1)c1ccco1	-1.8	–	–
O=C(CN1CCOCC1)Nc1ccccc1F	3.81	29.1 µM [rising, single point]	–
OCCC1CN(Cc2cnn(-c3ccc(F)cc3)c2)CCN1Cc1ccsc1 (stereo unspecified)	0.591	5.17 µM [rising, partial curve, poor fit]	–
CC(C)Oc1ccc(C(=O)NC(Cc2c[nH]c3ccccc23)C(=O)NN)cc1 (stereo unspecified)	–	–	2.91 µM [rising, single point]
Cc1cc(/C=C(\C#N)C(=O)NC2CCCCCC2)c(C)n1C	–	0.103 µM [falling, full curve, poor fit]	–
COc1ccc(C)cc1S(=O)(=O)N1CCN(c2ccccc2)CC1	-2.05	–	–
CCCCN(C(=O)C1CCN(C(=O)c2ccccc2C)CC1)c1c(N)n(CCC)c(=O)[nH]c1=O	34.6	0.411 µM [falling, full curve]	3.66 µM [rising, full curve]
Cc1nc2ccccc2c(=O)n1/N=C/c1ccc(O)cc1	-6.76	–	–
O=C(NCCc1ccccc1)c1cccc(S(=O)(=O)N2CCCCC2)c1	14.5	–	–
COc1ccc(/C=N/n2c(C)nnc2C)c(OC)c1OC	-14.6	0.103 µM [falling, full curve, poor fit]	–
S=C(Nc1ccccc1)N1CCn2c1nc1ccccc12	7.64	0.13 µM [rising, full curve, poor fit]	–
CCC(C)NC(=O)C1CC(c2cccc(OC)c2)=NO1 (stereo unspecified)	-28.4	32.6 µM [falling, single point]	–
Cc1onc(-c2ccccc2)c1C(=O)NCCc1ccc(Cl)cc1	-20.4	2.59 µM [falling, partial curve]	–
O=C(Cc1ccc(Br)cc1)N1CCc2ccccc2C1	-8.21	–	–
CCOc1cc(/C=N/Nc2nc(Nc3ccccc3)nc(N3CCCCC3)n2)ccc1OCC(=O)O	38.7	0.82 µM [rising, full curve, poor fit]	0.651 µM [rising, partial curve]
